Results as given in the DeepSol protein solubility set.

Experiment: soluble on expression in E. coli; label from the status in PepcDB or PDB records
For “ATTNPSQLLPLELVDKCIGSRIHIVMKSDKEIVGTLLGFDDFVNMVLEDVTEFEITPEGRRITKLDQILLNGNNITMLVPGGEGPEV”, the “soluble on expression in E. coli” value was “not soluble”. In the case of “GAMEPPYFIEPLEHVEAAIGEPITLQCKVDGTPEIRIAWYKEHTKLRSAPAYKMQFKNNVASLVINKVDHSDVGEYTCKAENSVGAVASSAVLVIKERKLPPSFARKLKDVHETLGFPVAFECRINGSEPLQVSWYKDGELLKDDANLQTSFIHNVATLQILQTDQSHVGQYNCSASNPLGTASSSAKLTLSEHEVPPFFDLKPVSVDLALGESGTFKCHVTGTAPIKITWAKDNREIRPGGNYKMTLVENTATLTVLKVTKGDAGQYTCYASNVAGKDSCSAQLGVQEPPRFIKKLEPSRIVKQDEHTRYECKIGGSPEIKVLWYKDETEIQESSKFRMSFVESVAVLEMYNLSVEDSGDYTCEAHNAAGSASSSTSLKVKEPPVFRKKPHPVETLKGADVHLECELQGTPPFQVSWHKDKRELRSGKKYKIMSENFLTSIHILNVDSADIGEYQCKASNDVGSDTCVGSITLKAPPRFVKKLSDISTVVGEEVQLQATIEGAEPISVAWFKDKGEIVRESDNIWISYSENIATLQFSRAEPANAGKYTCQIKNEAGTQECFATLSVLE”, the “soluble on expression in E. coli” value is reported as “soluble”. In the case of “GSHMAKFVIRPATAADCSDILRLIKELAKYEYMEEQVILTEKDLLEDGFGEHPFYHCLVAEVPKEHWTPEGHSIVGFAMYYFTYDPWIGKLLYLEDFFVMSDYRGFGIGSEILKNLSQVAMRCRCSSMHFLVAEWNEPSINFYKRRGASDLSSEEGWRLFKIDKEYLLKMATEE”, the “soluble on expression in E. coli” value is reported as “soluble”. For “MAQLSLQHIQKIYDNQVHVVKDFNLEIADKEFIVFVGPSGCGKSTTLRMIAGLEEISGGDLLIDGKRMNDVPAKARNIAMVFQNYALYPHMTVYDNMAFGLKMQKIAKEVIDERVNWAAQILGLREYLKRKPGALSGGQRQRVALGRAIVREAGVFLMDEPLSNLDAKLRVQMRAEISKLHQKLNTTMIYVTHDQTEAMTMATRIVIMKDGIVQQVGAPKTVYNQPANMFVSGFIGSPAMNFIRGTIDGDKFVTETLKLTIPEEKLAVLKTQESLHKPIVMGIRPEDIHPDAQEENNISAKISVAELTGAEFMLYTTVGGTS”, the “soluble on expression in E. coli” value was “soluble”. In the case of “MDVLPMCSIFQELQIVHETGYFSALPSLEEYWQQTCLELERYLQSEPCYVSASEIKFDSQEDLWTKIILAREKKEESELKISSSPPEDTLISPSFCYNLETNSLNSDVSSESSDSSEELSPTAKFTSDPIGEVLVSSGKLSSSVTSTPPSSPELSREPSQLWGCVPGELPSPGKVRSGTSGKPGDKGNGDASPDGRRRVHRCHFNGCRKVYTKSSHLKAHQRTHTGEKPYRCSWEGCEWRFARSDELTRHFRKHTGAKPFKCSHCDRCFSRSDHLALHMKRHL”, the “soluble on expression in E. coli” value is reported as “not soluble”. In the case of “MGHHHHHHSHERLKLGAIFLEGVTVKGVTQVTTQPKLGEVQQKCHQFCGWEGSGFPGAQPVSMDKQNIKLLDLKPYKVSWKADGTRYMMLIDGTNEVFMIDRDNSVFHVSNLEFPFRKDLRMHLSNTLLDGEMIIDRVNGQAVPRYLIYDIIKFNSQPVGDCDFNVRLQCIEREIISPRHEKMKTGLIDKTQEPFSVRNKPFFDICTSRKLLEGNFAKEVSHEMDGLIFQPTGKYKPGRCDDILKWKPPSLNSVDFRLKITRMGGEGLLPQNVGLLYVGGYERPFAQIKVTKELKQYDNKIIECKFENNSWVFMRQRTDKSFPNAYNTAMAVCNSISNPVTKEMLFEFIDRCTA”, the “soluble on expression in E. coli” value is reported as “soluble”. With “MGHHHHHHSHMYWHSCHPRPFPAESHCVTPAGVQWRDLGSLQTHCNIHLPGSSDSPASASWVAGITGTRHHTWLIFVFLVVTGFHHVGQAGLKLLTSGDPPSSSSQSAGITGVSHHAQPYSCIFFFFFFEMESESHPVAQGGV” the “soluble on expression in E. coli” value was “not soluble”. In the case of “MGSDKIHHHHHHMGLKFSNFGKAIISSAPSGTTGLSFTIEAGKGVLFPSPGIGDYFYGIFKDASGNREIVKIEARTSDSLTIAQGGRGLDGTAPRTWAAGDYFVAGVTNIALQESLANPNLQALGGLETSADKMAYFTGPGTAALANLSSYIRSLLDDDNAATARETLGAAPASLIPPGTVMSFFQATAPTGWTQVTTHHNKALRVVGSAGGGSGGSVAFTSAFTSQAVSGWNSATTLTSAQIPAHTHSLSVYGTSGGGANPSGGGGGIITGMPITDAGTGGGGSHSHIFTGTAINLAVQYIDIIIASKD”, the “soluble on expression in E. coli” value is reported as “not soluble”. With “MKKVPITVLSGFLGSGKTTLLHHILTNKNNLKVAVIVNDMSEVNIDASLIKKGGFSRTEEKLVEIQNGCICCTLREDLMIEVNRLVENGDIDYIIIESSGISEPIPVAQTFTYTDEVLNIDLTKNCRLDTMVTVVDANRFWDDFADGESLLDRKQAIDENDTREVIDLLIDQIEFANVIILNKIDLLEKEDVIELHHLLKKLNPNAKVLESSFSKVPLQEILNTNLFNYEEASQSAGWIQELNSDYHTPETEEYGINSFVYRRKYPFHPERLMNWLEKWPLDVVRAKGFFWLASRNNMIGLLSQAGSSITIQGAGEWIAALPETERNQMIAEEPEVLKNWDERYGDRITELVFIGIDMNRSVIEQSLDDCLLTEKEMGQKWNTFIDPIPAFTYTS” the “soluble on expression in E. coli” value was “not soluble”. For “MKKYALVTGGSGGIGSAISKQLIQDGYTVYVHYNNSEEKVNELQKEWGEVIPVQANLASSDGAEQLWEQIEHPLDAIIYAAGKSIFGLVTDVTNDELNDMVELQVKSIYKLLSMALPSMIQRRSGNIVLVSSIWGQIGASCEVLYSMVKGAQNSYVKALAKEVSLSGIRVNAVAPGAIETEMLNVFSEEDKNEIAEEIPLGRLGLPEEVAKTVSFLVSPGASYITGQIIGVNGGWHC”, the “soluble on expression in E. coli” value was “not soluble”. With “MNNGTVKWFNAEKGFGFIEREDGSDVFVHFSAIAEDGYKSLEEGQKVEFDIVEGDRGEQAANVVKM” the “soluble on expression in E. coli” value was “not soluble”. With “MRRTHYAGSLRETHVGEEVVLEGWVNRRRDLGGLIFLDLRDREGLVQLVAHPASPAYATAERVRPEWVVRAKGLVRLRPEPNPRLATGRVEVELSALEVLAEAKTPPFPVDAGWRGEEEKEASEELRLKYRYLDLRRRRMQENLRLRHRVIKAIWDFLDREGFVQVETPFLTKSTPEGARDFLVPYRHEPGLFYALPQSPQLFKQMLMVAGLDRYFQIARCFRDEDLRADRQPDFTQLDLEMSFVEVEDVLELNERLMAHVFREALGVELPLPFPRLSYEEAMERYGSDKPDLRFGLELKEVGPLFRQSGFRVFQEAESVKALALPKALSRKEVAELEEVAKRHKAQGLAWARVEEGGFSGGVAKFLEPVREALLQATEARPGDTLLFVAGPRKVAATALGAVRLRAADLLGLKREGFRFLWVVDFPLLEWDEEEEAWTYMHHPFTSPHPEDLPLLEKDPGRVRALAYDLVLNGVEVGGGSIRIHDPRLQARVFRLLGIGEEEQREKFGFFLEALEYGAPPHGGIAWGLDRLLALMTGSPSIREVIAFPKNKEGKDPLTGAPSPVPEEQLRELGLMVVRP” the “soluble on expression in E. coli” value was “soluble”. For “MSDSGSQLGSMGSLTMKSQLQITVISAKLKENKKNWFGPSPYVEVTVDGQSKKTEKCNNTNSPKWKQPLTVIVTPVSKLHFRVWSHQTLKSDVLLGTAALDIYETLKSNNMKLEEVVVTLQLGGDKEPTETIGDLSICLDGLQLESEVVTNGETTCSESASQNDDGSRSKDETRVSTNGSDDPEDAGAGENRRVSGNNSPSLSNGGFKPSRPPRPSRPPPPTPRRPASVNGSPSATSESDGSSTGSLPPTNTNTNTSEGATSGLIIPLTISGGSGPRPLNPVTQAPLPPGWEQRVDQHGRVYYVDHVEKRTTWDRPEPLPPGWERRVDNMGRIYYVDHFTRTTTWQRPTLESVRNYEQWQLQRSQLQGAMQQFNQRFIYGNQDLFATSQSKEFDPLGPLPPGWEKRTDSNGRVYFVNHNTRITQWEDPRSQGQLNEKPLPEGWEMRFTVDGIPYFVDHNRRTTTYIDPRTGKSALDNGPQIAYVRDFKAKVQYFRFWCQQLAMPQHIKITVTRKTLFEDSFQQIMSFSPQDLRRRLWVIFPGEEGLDYGGVAREWFFLLSHEVLNPMYCLFEYAGKDNYCLQINPASYINPDHLKYFRFIGRFIAMALFHGKFIDTGFSLPFYKRILNKPVGLKDLESIDPEFYNSLIWVKENNIEECDLEMYFSVDKEILGEIKSHDLKPNGGNILVTEENKEEYIRMVAEWRLSRGVEEQTQAFFEGFNEILPQQYLQYFDAKELEVLLCGMQEIDLNDWQRHAIYRHYARTSKQIMWFWQFVKEIDNEKRMRLLQFVTGTCRLPVGGFADLMGSNGPQKFCIEKVGKENWLPRSHTCFNRLDLPPYKSYEQLKEKLLFAIEETEGFGQE”, the “soluble on expression in E. coli” value was “soluble”. In the case of “MSGLGDSSSDPANPDSHKRKGSPCDTLASSTEKRRREQENKYLEELAELLSANISDIDSLSVKPDKCKILKKTVDQIQLMKRMEQEKSTTDDDVQKSDISSSSQGVIEKESLGPLLLEALDGFFFVVNCEGRIVFVSENVTSYLGYNQEELMNTSVYSILHVGDHAEFVKNLLPKSLVNGVPWPQEATRRNSHTFNCRMLIHPPDEPGTENQEACQRYEVMQCFTVSQPKSIQEDGEDFQSCLICIARRLPRPPAITGVESFMTKQDTTGKIISIDTSSLRAAGRTGWEDLVRKCIYAFFQPQGREPSYARQLFQEVMTRGTASSPSYRFILNDGTMLSAHTKCKLCYPQSPDMQPFIMGIHIIDREHSGLSPQDDTNSGMSIPRVNPSVNPSISPAHGVARSSTLPPSNSNMVSTRINRQQSSDLHSSSHSNSSNSQGSFGCSPGSQIVANVALNQGQASSQSSNPSLNLNNSPMEGTGISLAQFMSPRRQVTSGLATRPRMPNNSFPPNISTLSSPVGMTSSACNNNNRSYSNIPVTSLQGMNEGPNNSVGFSASSPVLRQMSSQNSPSRLNIQPAKAESKDNKEIASILNEMIQSDNSSSDGKPLDSGLLHNNDRLSDGDSKYSQTSHKLVQLLTTTAEQQLRHADIDTSCKDVLSCTGTSNSASANSSGGSCPSSHSSLTERHKILHRLLQEGSPSDITTLSVEPDKKDSASTSVSVTGQVQGNSSIKLELDASKKKESKDHQLLRYLLDKDEKDLRSTPNLSLDDVKVKVEKKEQMDPCNTNPTPMTKPTPEEIKLEAQSQFTADLDQFDQLLPTLEKAAQLPGLCETDRMDGAVTSVTIKSEILPASLQSATARPTSRLNRLPELELEAIDNQFGQPGTGDQIPWTNNTVTAINQSKSEDQCISSQLDELLCPPTTVEGRNDEKALLEQLVSFLSGKDETELAELDRALGIDKLVQGGGLDVLSERFPPQQATPPLIMEERPNLYSQPYSSPSPTANLPSPFQGMVRQKPSLGTMPVQVTPPRGAFSPGMGMQPRQTLNRPPAAPNQLRLQLQQRLQGQQQLIHQNRQAILNQFAATAPVGINMRSGMQQQITPQPPLNAQMLAQRQRELYSQQHRQRQLIQQQRAMLMRQQSFGNNLPPSSGLPVQMGNPRLPQGAPQQFPYPPNYGTNPGTPPASTSPFSQLAANPEASLANRNSMVSRGMTGNIGGQFGTGINPQMQQNVFQYPGAGMVPQGEANFAPSLSPGSSMVPMPIPPPQSSLLQQTPPASGYQSPDMKAWQQGAIGNNNVFSQAVQNQPTPAQPGVYNNMSITVSMAGGNTNVQNMNPMMAQMQMSSLQMPGMNTVCPEQINDPALRHTGLYCNQLSSTDLLKTEADGTQQVQQVQVFADVQCTVNLVGGDPYLNQPGPLGTQKPTSGPQTPQAQQKSLLQQLLTE”, the “soluble on expression in E. coli” value is reported as “not soluble”. In the case of “MSMSSSSSICGDEDGDLLLDEEEEIDFYAILNVPKDATDDEIIKAYRKRCLMFHPDRFVDNDEKKDAERVFVKLRRAHEVLLDPKQRAIYDALGVQGLDTQGWELVSRSANPENIRKEYEFLQRLKDRELMLQRVHPTSAFMIKTTIAGMFQENDEDRYPPQLLGISLSQSVDCAFTGVDRFGLSGRVKTGNGRGDGSVSAVWKRVAGSYNLENTISLSAESVSLTCRAARNVFTRAAVIVQPQLQYNMLHEAIIPSIAMSMLNRIKKVYSEKDRLFTDSSIFCKIPFYSMRLHTRWQGSIVLNISPIANALTTTMVHTENNHAKAVGSLTLSPINSNVRLVYYIRKPENDSITEMSVQLTTYGVNPAISMDRRLSRYSRISCSFHFSFPSCLLYTKFKLKAGQSTFDWQIVLCDDKEALSRSVLYGVAIPYFSFQLAKVIFRPWWEKFKSMFEDNSREQEVDVAKKEEAANIVSLMRATAERIKRDEESKQGVIIESAKYGQCDVSGTRAYPLAGERTIDVTVPLQAMVNDSQLRVYTVKSQLPGFYDPCPGEPKMLTVRYIFRGEEHSCTVADEMPLMLPLRAHRLSSE”, the “soluble on expression in E. coli” value is reported as “not soluble”.
